Out of some 410,000 compounds screened, about 18,000 (4.4%) were called active. The inconclusive results got no clear call from the source; some entries with a clear call stand among them for comparison. Cut-off read from the data, not from the text of the source: active = activity change below about -60%; inconclusive = no clear call, values can overlap the other calls; inactive = above about -39%.
Assay: qHTS Assay for inhibitors of the human cytomegalovirus (HCMV)
Conditions: HFF cells, HCMV-luciferase reporter, 72 h; at 57.5 µM; stronger effect = lower value
In short: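 Compounds were evaluated in HFFs infected with an HCMV luciferase reporter virus (MOI 1 PFU/cell). Luciferase in lysates collected 72 h post infection served as the replication measure.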
% is set by controls: 0 for no effect and ±100 for the full control effect.

Row | Compound | activity change, negative = inhibition
1 | COc1cccc(-c2nn3c(-c4cc(C)[nH]n4)nnc3s2)c1 | inactive: -17.1%
2 | CCOC(=O)COc1coc(CN2CCN(c3ccccc3)CC2)cc1=O | active: -61%
3 | CSc1ccccc1C(=O)N1CCC(CCC(=O)NCc2ccc(F)cc2)CC1 | inconclusive: -40.9%
4 | CCOC(=O)c1c[nH]c2c(C)ccc(Cl)c2c1=O | inconclusive: -40.6%
5 | COC(=O)c1cc2c(cc1N)OCCO2 | inactive: -5.11%
6 | CCCCN(CCCC)C1=C(C(=O)c2ccccc2)N(C)S(=O)(=O)c2ccccc21 | inactive: -29%
7 | CCCCN1C(C(=O)c2ccccc2)=C(OC(C)=O)c2ccccc2S1(=O)=O | active: -108%
8 | COCc1cc(C)nc(OCC(=O)N/N=C/c2ccc(OC)c(O)c2)c1C#N | inconclusive: -41.8%
9 | COc1ccc(NC(=O)CNC(=O)Cn2c(C)cc3ccccc3c2=O)cc1OC | inconclusive: -48.3%
10 | O=c1ccc2ccc(OCc3nnc(-c4ccccc4Br)o3)cc2o1 | inconclusive: -41%
11 | C=CC[C@@H](CC(=O)N[C@@H](CO)Cc1ccccc1)C(=O)NC[C@H](OC(=O)[C@@H](CC=C)Cc1ccc(F)cc1)c1ccccc1 | active: -64%
12 | COc1ccc(NC(=O)CN2C(=O)NC3(CCCC3)C2=O)cc1S(=O)(=O)N1CCCCC1 | inactive: -6.15%
13 | CC(=O)c1cccc(NC(=O)CSc2nc3ccccc3c(=O)n2CCCN2CCOCC2)c1 | inactive: 0%
14 | O=Cc1ccccc1OCCOc1ccccc1C=O | inconclusive: -58%
15 | CC(C)CCCn1c(O)c(/C=C2/C=CC=N2)c(=O)[nH]c1=O | inconclusive: -56.2%
16 | COc1cc(NC(=O)CN2C(=O)CSc3ccc(S(=O)(=O)N4CCCC4)cc32)cc(OC)c1 | inconclusive: 0%
17 | COc1cc(C=c2c3ccccc3n3c2cc(-c2ccccc2)[n+]3C)cc(OC)c1OC | active: -101%
18 | Cc1cc(C)c2c(N)c(C(=O)c3ccc(Cl)c(Cl)c3)sc2n1 | inconclusive: -50.6%
19 | COC(=O)c1sccc1NC(=O)c1c(F)c(F)c(F)c(F)c1F | inconclusive: -54.9%
20 | CCCCCCn1c(O)c(/C=C2\C=NN=C2c2ccccc2)sc1=S | inconclusive: -51.9%
21 | CCN(CC(=O)Nc1c(F)cccc1F)C(=O)c1cccc(S(=O)(=O)N2CCCc3ccccc32)c1 | inconclusive: -41.6%
22 | Cc1ccc(N2C(=O)NC(=O)/C(=C\C=C\c3ccco3)C2=O)cc1C | active: -102%
23 | Cc1ccc2c(c1)cc(C(=O)NCc1ccccc1)n2C | active: -70.9%
24 | CCOC(=O)/C(=C/Nc1ccc(F)cc1)[N+](=O)[O-] | inconclusive: -44.9%
25 | CCN1CCN(c2cc(C)c3cc(NC(=S)N4CCN(c5ccccc5)CC4)ccc3n2)CC1 | active: -60.6%
26 | O=C(COc1ccc2ccccc2c1Br)Nc1ccncc1 | active: -60.3%
27 | CCc1ccc(NC(=O)CSc2nc3c(sc4ccccc43)c(=O)n2CCCOC(C)C)cc1 | inconclusive: -40.6%
28 | O=c1onc(-c2ccccc2)n1-c1cc(Cl)cc(Cl)c1 | inconclusive: -46.4%

As entered above:
Entry for CCc1ccc(NC(=O)CSc2nc3c(sc4ccccc43)c(=O)n2CCCOC(C)C)cc1 under activity change, negative = inhibition: inconclusive: -40.6%
Entry for CCCCCCn1c(O)c(/C=C2\C=NN=C2c2ccccc2)sc1=S under activity change, negative = inhibition: inconclusive: -51.9%
Entry for CCOC(=O)c1c[nH]c2c(C)ccc(Cl)c2c1=O under activity change, negative = inhibition: inconclusive: -40.6%
Entry for CCOC(=O)/C(=C/Nc1ccc(F)cc1)[N+](=O)[O-] under activity change, negative = inhibition: inconclusive: -44.9%

Going on with the list.

Row | Compound | activity change, negative = inhibition
29 | Cc1ccc(S(=O)(=O)n2cccc2/C=C/[N+](=O)[O-])cc1 | active: -97.7%
30 | CCN(c1ccccc1)S(=O)(=O)c1ccc(Cl)c(NC(=O)CN2CCN(C)CC2)c1 | inconclusive: -41.1%
31 | O=C(Nc1nnc(-c2cccs2)o1)c1cccc(C(F)(F)F)c1 | inconclusive: -55.3%
32 | COc1ccc(C(=O)Nc2nonc2-c2ccc(OC)c(OC)c2)cc1Cl | inconclusive: -41%
33 | O=C1N2c3ccccc3CCc3cccc(c32)C1(O)C(F)(F)F (stereo not given) | active: -60.7%
34 | O=C(NC1CCCCC1)C(c1ccc2ncccc2c1)N(Cc1ccccc1)C(=O)c1cccs1 (stereo not given) | active: -61.7%
35 | O=C(NC(=S)Nc1ccc(N2CCCCC2)cc1)c1cccs1 | inconclusive: -41.7%
36 | CN(C)c1ccc(CN(C(=O)c2cc3ccccc3oc2=O)C2CCS(=O)(=O)C2)cc1 (stereo not given) | inactive: 46.2%
37 | O=C(Nc1cccc(NC(=O)c2ccc(Br)cc2)c1)c1ccccc1 | inconclusive: -45.9%
38 | CCOc1ccc(N=Cc2c(O)n(CCc3ccc(OC)c(OC)c3)c(=O)[nH]c2=O)cc1 | inactive: 17.8%
39 | COc1ccccc1NC(=S)NC(=O)c1c(-c2ccccc2Cl)noc1C | inconclusive: -48.7%
40 | O=C(C[C@H]1C[C@H](C(=O)N2CCOCC2)[C@@]2(CCC3CCCC3)c3[nH]c4ccc(Cl)cc4c3CCN2C1=O)NCCCn1ccnc1 | inactive: -23.8%
41 | CCOC(=O)c1csc(Nc2nc3ccc(F)cc3s2)n1 | inconclusive: -59.7%
42 | CCN(c1ccccc1)S(=O)(=O)c1ccc(Cl)c(C(=O)NCc2ccco2)c1 | inconclusive: -58.1%
43 | CCCNCc1cc(OC)c(OCC(=O)Nc2ccccc2)cc1Br | inconclusive: -40.1%
44 | CCn1c(SCc2nc(-c3cccs3)no2)nnc1-c1c[nH]c2ccccc12 | inconclusive: -56.5%
45 | COc1ccc(/C(C)=N/Nc2nc(C)cc(-c3ccccc3)n2)cc1 | active: -93.5%
46 | OCCN1CCN(c2ncnc3ccc(Br)cc23)CC1 | active: -78.3%
47 | COC(=O)c1oc2ccc(Br)cc2c1NC(=O)c1ccccc1 | inconclusive: -46.2%
48 | COc1ccc(Cn2c(C(=O)O)c(CNCc3ccc(C)o3)c3ccc(OC)cc32)cc1 | inactive: -14.8%
49 | CC(C)OC(=O)CSc1nnc(CNc2cccc(Cl)c2)n1C | inactive: 72.6%
50 | CCc1ccc(NC(=O)Cn2c(=O)n(CCC(=O)NCCc3ccc(OC)c(OC)c3)c(=O)c3ccccc32)cc1 | inactive: -0.822%
51 | CCC(C)S(=O)(=O)c1oc(-c2ccc(F)cc2)nc1S(=O)(=O)c1ccc(F)cc1 (stereo not given) | active: -100%
52 | CCc1nc(Nc2ccccc2F)c2oc3ccccc3c2n1 | inactive: -29.1%
53 | CCOC(=O)Cc1nn(CCc2ccccn2)c(=O)c2ccccc12 | inconclusive: -51.3%
54 | Cc1cc(C)cc(NC(=O)C2CCN(c3nc4ccccc4nc3C(F)(F)F)CC2)c1 | inactive: 20.9%
55 | Cc1ccc(C)c(NS(=O)(=O)c2ccc(OCC(=O)NCc3cccnc3)cc2)c1 | inconclusive: -41%
